This experiment deals with T1, PDK1 (UniProt O15530).
T1 sequence: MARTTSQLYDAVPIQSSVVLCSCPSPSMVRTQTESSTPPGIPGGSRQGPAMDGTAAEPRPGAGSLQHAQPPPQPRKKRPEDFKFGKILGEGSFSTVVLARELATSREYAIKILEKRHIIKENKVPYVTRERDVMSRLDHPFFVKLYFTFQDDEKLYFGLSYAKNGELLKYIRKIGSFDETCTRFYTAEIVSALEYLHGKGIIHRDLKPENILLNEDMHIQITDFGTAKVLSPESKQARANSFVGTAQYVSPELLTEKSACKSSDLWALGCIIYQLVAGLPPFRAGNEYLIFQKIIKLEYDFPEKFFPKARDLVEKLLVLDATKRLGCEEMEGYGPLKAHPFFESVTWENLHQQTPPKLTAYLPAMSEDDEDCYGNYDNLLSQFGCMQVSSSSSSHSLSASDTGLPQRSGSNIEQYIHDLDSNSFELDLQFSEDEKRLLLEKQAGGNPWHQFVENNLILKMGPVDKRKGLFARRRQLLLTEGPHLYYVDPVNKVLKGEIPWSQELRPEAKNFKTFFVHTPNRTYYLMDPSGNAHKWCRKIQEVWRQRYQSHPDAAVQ
As to the kind of experiment: co-IP; exogenous co-IP of transfected proteins in HEK-293T cells; lysis buffer 150 mM NaCl, 150 mM Tris, 0.4% NP-40, pH 7.4; antibody 4-6 hrs at 4 °C, protein A magnetic beads 2 hrs at 4 °C; immunoblot; some experiments quantitative with UPP1-WT or UPP1-R94A co-overexpressed, one with SC79. A general note: In western blotting, separated proteins are transferred to a membrane and probed.

Results are given in words; binding and its absence hold for the method and conditions named. Binding seen in cells or lysates may run through a third protein. Some results given as binding are weak or reduced against the parent protein; the word gives no strength.

B1: UPP1-R94A (mutant UPP1) (enzyme, UniProt Q16831 1-310)
chain: MAATGANAEKAESHNDCPVRLLNPNIAKMKEDILYHFNLTTSRHNFPALFGDVKFVCVGGSPSRMKAFIRCVGAELGLDCPGRDYPNICAGTDAYAMYKVGPVLSVSHGMGIPSISIMLHELIKLLYYARCSNVTIIRIGTSGGIGLEPGTVVITEQAVDTCFKAEFEQIVLGKRVIRKTDLNKKLVQELLLCSAELSEFTTVVGNTMCTLDFYEGQGRLDGALCSYTEKDKQAYLEAAYAAGVRNIEMESSVFAAMCSACGLQAAVVCVTLLNRLEGDQISSPRNVLSEYQQRPQRLVSYFIKKKLSKA
For the molecule B1, the binding result was “binds”.
